# Results are given in words; binding and its absence hold for the method and conditions named. Some binding calls cover weakened binding; strength is not graded here. Where a sequence is shown, tags or fusion partners need not be part of it.
# Biological target: T1, FtsZ of S. coelicolor, C-terminal His-tag fusion (Streptomyces coelicolor) (UniProt P45500)
# T1 sequence: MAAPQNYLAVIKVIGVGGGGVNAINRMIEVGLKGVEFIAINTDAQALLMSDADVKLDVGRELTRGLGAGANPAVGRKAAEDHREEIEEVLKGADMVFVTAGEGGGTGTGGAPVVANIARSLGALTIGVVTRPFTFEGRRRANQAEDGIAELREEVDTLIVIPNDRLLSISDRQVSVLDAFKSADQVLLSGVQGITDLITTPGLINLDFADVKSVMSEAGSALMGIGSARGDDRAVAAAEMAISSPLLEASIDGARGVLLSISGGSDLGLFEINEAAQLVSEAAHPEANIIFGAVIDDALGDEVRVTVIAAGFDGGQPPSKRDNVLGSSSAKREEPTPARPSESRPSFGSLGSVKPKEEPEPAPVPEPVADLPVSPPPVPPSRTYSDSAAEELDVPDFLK
# Experiment: co-sedimentation
substance,measurement,value
"C-terminally truncated SsgB of S. coelicolor (SsgBΔC, 1-114 aa), His6-tagged (from UniProt Q9L268 1-114) (domain or fragment)",binding,binds
